Patent US20200247897A1, “THERAPEUTIC ANTIBODIES BASED ON MUTATED IGG HEXAMERS” (GENMAB B.V., priority 2017, published 2020)
This continues a long series; more values of the same kind are listed elsewhere.

System: panel of 235 cell lines representing 14 tumor lineages
Test: ATPlite growth inhibition screening of a human cancer cell line panel (Horizon Discovery)
Assay type: cell-based
Protocol: A 72 hour ATPlite assay (except for DLD-1 and HCT116 cell lines, for which a 120 hour assay was performed) with growth inhibition analysis was performed in two parts at Horizon Discovery Ltd, UK. Samples were tested as four replicates in 384-well assay plates. Serial dilution series of antibody, starting from 0.072 μM final concentration was used for all tested cell lines. For TRAIL (Invitrogen; Cat # PHC1634) serial dilution series starting from 0.01 μM final concentration for the cell lines tested in the first part and 0.17 μM final concentration for the cell lines tested in the second part of the screening was used.

TRAIL: natural DR5 ligand, recombinant human TRAIL/APO-2L
Max Inhibition (A498, kidney cancer, screening #2): 96.1% | Max Inhibition (A704, kidney cancer, screening #1): 77.1% | Max Inhibition (BICR 18, head and neck cancer, screening #1): 3.4% | Max Inhibition (BICR 22, head and neck cancer, screening #1): 13.6% | Max Inhibition (BICR 31, head and neck cancer, screening #1): 38.9% | Max Inhibition (BT-20, breast cancer (TNBC), screening #2): 48.9% | Max Inhibition (BT-549, breast cancer (TNBC), screening #2): 44.0% | Max Inhibition (C2BBe1, colorectal cancer, screening #1): 8.8% | Max Inhibition (CJM, head and neck cancer, screening #1): 12.8% | Max Inhibition (CL-11, colorectal cancer, screening #1): 85.9% | Max Inhibition (CL-34, colorectal cancer, screening #1): 98.8% | Max Inhibition (CL-40, colorectal cancer, screening #1): 57.3% | Max Inhibition (COLO320DM, colorectal cancer, screening #1): 8.0% | Max Inhibition (COLO-201, colorectal cancer, screening #1): 89.1% | Max Inhibition (COLO-205, colorectal cancer, screening #1): 83.5% | Max Inhibition (COLO-206F, colorectal cancer, screening #1): 99.2% | Max Inhibition (COLO-320, colorectal cancer, screening #1): 3.9% | Max Inhibition (COLO-678, colorectal cancer, screening #1): 10.1% | Max Inhibition (COLO-684, endometrial cancer, screening #1): 16.6% | Max Inhibition (DBTRG-05MG, neural tissue cancer, screening #2): 36.0% | Max Inhibition (DLD-1, colorectal cancer, screening #1): 55.1% | Max Inhibition (DLD-1_BRCA2 (−/−), colorectal cancer, screening #1): 60.0% | Max Inhibition (DU-4475, breast cancer (TNBC), screening #2): 87.0% | Max Inhibition (EC-GI-10, head and neck cancer, screening #1): 29.6% | Max Inhibition (ECC10, gastric cancer, screening #1): 14.0% | Max Inhibition (ECC12, gastric cancer, screening #1): 27.4% | Max Inhibition (FTC-238, head and neck cancer, screening #1): 86.7% | Max Inhibition (G-401, kidney cancer, screening #2): 76.6% | Max Inhibition (GP2D, colorectal cancer, screening #1): 100.0% | Max Inhibition (GSS, gastric cancer, screening #1): 15.4% | Max Inhibition (GSU, gastric cancer, screening #1): 81.6% | Max Inhibition (H4, neural tissue cancer, screening #2): 98.9% | Max Inhibition (HCC38, breast cancer (TNBC), screening #2): 96.9% | Max Inhibition (HCC70, breast cancer (TNBC), screening #2): 3.6% | Max Inhibition (HCC1187, breast cancer (TNBC), screening #2): 99.4% | Max Inhibition (HCC1806, breast cancer (TNBC), screening #2): 97.8% | Max Inhibition (HCT-15, colorectal cancer, screening #1): 98.6% | Max Inhibition (HCT-116_ARID1A (Q456*/Q456*), colorectal cancer, screening #1): 50.2% | Max Inhibition (HCT-116_KRAS (+/−), colorectal cancer, screening #1): 88.7% | Max Inhibition (HCT-116_PAR-007, colorectal cancer, screening #1): 14.2% | Max Inhibition (HCT-116_PIK3A (+/−)KO mt H1047R, colorectal cancer, screening #1): 59.8% | Max Inhibition (HCT-116_PTEN (−/−), colorectal cancer, screening #1): 38.0% | Max Inhibition (HCT-116_TP53 (−/−), colorectal cancer, screening #1): 17.2% | Max Inhibition (HEC-1, endometrial cancer, screening #1): 8.1% | Max Inhibition (HEC-1-A, endometrial cancer, screening #1): 22.8% | Max Inhibition (HEC-50B, endometrial cancer, screening #1): 16.6% | Max Inhibition (HEC-108, endometrial cancer, screening #1): 64.9% | Max Inhibition (HEC-265, endometrial cancer, screening #1): 100.0% | Max Inhibition (HLE, liver cancer, screening #1): 56.0% | Max Inhibition (HMC-1-8, breast cancer (TNBC), screening #2): 70.0% | Max Inhibition (HRT-186, colorectal cancer, screening #1): 52.5% | Max Inhibition (HSC-4, head and neck cancer, screening #1): 0.5% | Max Inhibition (HT55, colorectal cancer, screening #1): 76.4% | Max Inhibition (HT-29, colorectal cancer, screening #1): 12.2% | Max Inhibition (HT-115, colorectal cancer, screening #1): 99.7% | Max Inhibition (HUH-6-clone5, liver cancer, screening #1): 20.2% | Max Inhibition (HuCCT1, liver cancer, screening #1): 7.5% | Max Inhibition (HuH-1, liver cancer, screening #1): 47.7% | Max Inhibition (HuH-28, liver cancer, screening #1): 17.5% | Max Inhibition (IST-SL2, SCLC, screening #1): 21.0% | Max Inhibition (JHUEM-2, endometrial cancer, screening #1): 66.4% | Max Inhibition (JHUEM-3, endometrial cancer, screening #1): 18.4% | Max Inhibition (KE-97, gastric cancer, screening #1): 23.4% | Max Inhibition (KNS-81, neural tissue cancer, screening #2): −6.6% | Max Inhibition (KYM-1, head and neck cancer, screening #1): 30.2% | Max Inhibition (KYSE-30, head and neck cancer, screening #1): 8.0% | Max Inhibition (KYSE-70, head and neck cancer, screening #1): 46.0% | Max Inhibition (KYSE-270, head and neck cancer, screening #1): 5.4% | Max Inhibition (KYSE-410, head and neck cancer, screening #1): 10.6% | Max Inhibition (LMSU, gastric cancer, screening #1): 9.0% | Max Inhibition (LOVO, colorectal cancer, screening #1): 44.5% | Max Inhibition (LS-411N, colorectal cancer, screening #1): 26.9% | Max Inhibition (LU-134-A, SCLC, screening #1): 28.0% | Max Inhibition (LU-135, SCLC, screening #1): 9.7% | Max Inhibition (LU-139, SCLC, screening #1): 10.0% | Max Inhibition (Li-7, liver cancer, screening #1): 20.4% | Max Inhibition (MDA-MB-231, breast cancer (TNBC), screening #1): 53.3% | Max Inhibition (MDA-MB-436, breast cancer (TNBC), screening #2): 76.3% | Max Inhibition (MDST8, colorectal cancer, screening #1): 58.3% | Max Inhibition (MES-SA, endometrial cancer, screening #1): 92.6% | Max Inhibition (MFE-280, endometrial cancer, screening #1): 11.0% | Max Inhibition (MFE-296, endometrial cancer, screening #1): 8.7% | Max Inhibition (MKN1, gastric cancer, screening #1): 10.5% | Max Inhibition (NCC-StC-K140, gastric cancer, screening #1): 9.8% | Max Inhibition (NCI-H69, SCLC, screening #1): 14.5% | Max Inhibition (NCI-H345, SCLC, screening #1): 16.4% | Max Inhibition (NCI-H446, SCLC, screening #1): 11.7% | Max Inhibition (NMC-G1, neural tissue cancer, screening #2): 15.2% | Max Inhibition (NUGC-3, gastric cancer, screening #1): 38.7% | Max Inhibition (PE-CA-PJ34-cl C12, head and neck cancer, screening #1): 4.7% | Max Inhibition (RERF-GC-1B, gastric cancer, screening #1): 14.0% | Max Inhibition (RH-41, liver cancer, screening #1): 3.0% | Max Inhibition (RKO, colorectal cancer, screening #1): 10.5% | Max Inhibition (RL95-2, endometrial cancer, screening #1): 97.7% | Max Inhibition (SCC-15, head and neck cancer, screening #1): 19.4% | Max Inhibition (SF126, neural tissue cancer, screening #2): 85.6% | Max Inhibition (SH-10-TC, gastric cancer, screening #1): 34.9% | Max Inhibition (SHP-77, SCLC, screening #1): 9.1% | Max Inhibition (SK-UT-1, endometrial cancer, screening #1): 10.9% | Max Inhibition (SNB-75, neural tissue cancer, screening #2): 9.6% | Max Inhibition (SNG-II, endometrial cancer, screening #1): 77.2% | Max Inhibition (SNU5, gastric cancer, screening #1): 91.2% | Max Inhibition (SNU283, colorectal cancer, screening #1): 40.3% | Max Inhibition (SNU1033, colorectal cancer, screening #1): 51.7% | Max Inhibition (SNU-175, colorectal cancer, screening #1): 96.2% | Max Inhibition (SNU-216, gastric cancer, screening #1): 49.6% | Max Inhibition (SNU-407, colorectal cancer, screening #1): 96.1% | Max Inhibition (SNU-478, liver cancer, screening #1): 83.3% | Max Inhibition (SNU-601, gastric cancer, screening #1): 85.2% | Max Inhibition (SNU-620, gastric cancer, screening #1): 99.9% | Max Inhibition (SNU-668, gastric cancer, screening #1): 99.6% | Max Inhibition (SNU-719, gastric cancer, screening #1): 85.4% | Max Inhibition (SNU-761, liver cancer, screening #1): 7.1% | Max Inhibition (SNU-869, liver cancer, screening #1): 58.6% | Max Inhibition (SNU-1079, liver cancer, screening #1): 24.9% | Max Inhibition (SNU-1196, liver cancer, screening #1): 44.3% | Max Inhibition (SNU-1197, colorectal cancer, screening #1): 100.0% | Max Inhibition (SNU-C2B, colorectal cancer, screening #1): 71.3% | Max Inhibition (SUM159PT, breast cancer (TNBC), screening #2): 98.6% | Max Inhibition (SW480, colorectal cancer, screening #1): 55.2% | Max Inhibition (SW837, colorectal cancer, screening #1): 83.8% | Max Inhibition (SW1116, colorectal cancer, screening #1): 23.1% | Max Inhibition (SW1417, colorectal cancer, screening #1): 12.2% | Max Inhibition (TE-1, head and neck cancer, screening #1): 23.0% | Max Inhibition (TE-4, head and neck cancer, screening #1): 81.0% | Max Inhibition (TE-5, head and neck cancer, screening #1): 11.6% | Max Inhibition (TE-6, head and neck cancer, screening #1): 55.3% | Max Inhibition (TE-8, head and neck cancer, screening #1): 39.6% | Max Inhibition (TE-9, head and neck cancer, screening #1): 73.6% | Max Inhibition (TE-10, head and neck cancer, screening #1): 24.4% | Max Inhibition (TEN, endometrial cancer, screening #1): 70.0% | Max Inhibition (U-87 MG, neural tissue cancer, screening #2): 8.0% | Max Inhibition (YD-8, head and neck cancer, screening #1): 3.4% | Max Inhibition (YD-15, head and neck cancer, screening #1): 100.0% | Max Inhibition (YH-13, neural tissue cancer, screening #2): 39.5%
